Data: US20240042045A1, “NANOPARTICLES CONTAINING MULTIPLE CLEAVABLE PRODUGS FOR CANCER THERAPY” (The University of Chicago, priority 2020, published 2024)
Some of these results come from one statement about several compounds together.

Test system: lipoproteins
Test: Distribution in lipoproteins after incubation in rat plasma (NaBr gradient ultracentrifugation, LC-MS)
Settings: 37° C., 3 h, Chol-SN38 measured for OxPt/SN38
Excerpt: Lipoproteins were separated based on their densities by NaBr gradient ultracentrifugation.

CCc1c2c(nc3ccc(OC(=O)OCOC(=O)CCC(=O)O[C@H]4CC[C@@]5(C)C(=CC[C@H]6[C@@H]7CC[C@H]([C@H](C)CCCC(C)C)[C@@]7(C)CC[C@@H]65)C4)cc13)-c1cc3c(c(=O)n1C2)COC(=O)[C@@]3(CC)O[Si](C)(C)C [Chol-SN38, 7-ethyl-10-(((((cholest-5-en-3-oxy)-4-oxobutanoyl)oxy)methoxy)-carbonyl)oxyl-20-O-trimethylsilyl camptothecin]
distribution in albumin fraction: less than 1%
